The name of at least one read-out is uncertain.
Test: First-in-human Part 1 single ascending dose blood PK
Type: in vivo
Conditions: single doses 0.5-600 mg, across all doses
Procedure: A first-in-human study was conducted to assess the safety and tolerability, pharmacokinetics (PK) and pharmacodynamics (PD) of single and multiple doses of compound (I) both as once daily (qd) and twice daily (bid) oral administration in healthy volunteers and those with atopic diathesis, to support further clinical development of compound (I) in autoimmune diseases. This study also explored the effect of food intake. […]
Pharmacokinetic samples were obtained in blood and evaluated in all subjects at all dose levels. The samples from placebo subjects were not analyzed. […] Compound (I) concentrations were determined in blood by a validated LC-MS/MS method.

## C=CC(=O)N(C)CCOc1c(N)ncnc1-c1cc(F)cc(NC(=O)c2ccc(C3CC3)cc2F)c1C [Compound of Formula (I), N-(3-(6-Amino-5-(2-(N-methylacrylamido)ethoxy)pyrimidin-4-yl)-5-fluoro-2-methylphenyl)-4-cyclopropyl-2-fluorobenzamide]
  time to reach Cmax: 1 to 1.5 h
